Source: paper PMC12317139
These are yes or no findings as the source states them, for the method shown. In cells and extracts the contact can be indirect. Some binding calls cover weakened binding; strength is not graded here. Where a sequence is shown, tags or fusion partners need not be part of it.

T1: TRPM3 with a C-terminal RFP tag (TRPM3-RFP) (mouse) (UniProt J9SQF3)
T1 sequence: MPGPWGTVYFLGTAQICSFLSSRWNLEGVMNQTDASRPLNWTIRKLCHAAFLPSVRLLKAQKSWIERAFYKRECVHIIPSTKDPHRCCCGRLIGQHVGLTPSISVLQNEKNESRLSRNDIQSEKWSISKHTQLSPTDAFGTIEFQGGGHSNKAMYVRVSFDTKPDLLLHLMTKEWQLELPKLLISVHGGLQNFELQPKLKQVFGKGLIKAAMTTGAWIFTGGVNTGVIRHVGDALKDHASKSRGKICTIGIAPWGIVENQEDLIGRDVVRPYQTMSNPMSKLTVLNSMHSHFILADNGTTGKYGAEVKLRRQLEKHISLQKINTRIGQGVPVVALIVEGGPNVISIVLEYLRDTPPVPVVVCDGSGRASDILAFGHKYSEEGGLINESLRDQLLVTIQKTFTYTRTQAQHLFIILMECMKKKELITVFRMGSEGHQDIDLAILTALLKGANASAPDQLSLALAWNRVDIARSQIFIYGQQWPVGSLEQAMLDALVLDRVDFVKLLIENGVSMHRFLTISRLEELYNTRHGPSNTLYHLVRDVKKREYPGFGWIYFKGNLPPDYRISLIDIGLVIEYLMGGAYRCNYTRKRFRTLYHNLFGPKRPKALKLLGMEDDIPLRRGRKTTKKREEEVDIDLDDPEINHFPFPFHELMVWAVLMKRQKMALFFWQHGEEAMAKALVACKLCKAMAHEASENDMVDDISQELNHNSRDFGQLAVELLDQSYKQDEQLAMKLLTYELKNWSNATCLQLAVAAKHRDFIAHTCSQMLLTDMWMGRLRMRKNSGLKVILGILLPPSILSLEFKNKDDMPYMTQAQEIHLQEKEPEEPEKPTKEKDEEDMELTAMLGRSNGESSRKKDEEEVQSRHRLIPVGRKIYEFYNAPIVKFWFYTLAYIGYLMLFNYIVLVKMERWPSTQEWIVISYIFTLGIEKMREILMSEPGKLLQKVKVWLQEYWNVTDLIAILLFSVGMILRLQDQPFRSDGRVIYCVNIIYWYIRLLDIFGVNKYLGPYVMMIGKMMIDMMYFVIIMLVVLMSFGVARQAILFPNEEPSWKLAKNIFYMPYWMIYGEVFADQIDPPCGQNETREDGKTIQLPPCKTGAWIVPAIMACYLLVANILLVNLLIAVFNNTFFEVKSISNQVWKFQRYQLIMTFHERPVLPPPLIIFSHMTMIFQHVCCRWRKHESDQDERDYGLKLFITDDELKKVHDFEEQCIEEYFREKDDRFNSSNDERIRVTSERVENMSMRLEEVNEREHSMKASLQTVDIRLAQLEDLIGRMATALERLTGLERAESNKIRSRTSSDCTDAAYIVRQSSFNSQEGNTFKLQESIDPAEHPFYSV


Columns and labels:
[1] = target: Copine-6 carrying a C-terminal Flag-tag (Copine-6-Flag) (not stated (rat or mouse cDNA cloned)) (UniProt Q9Z140); assay: co-IP; HEK293T cells co-transfected; lysate incubated with anti-RFP or anti-Flag antibody (2 μg, 4 °C, 4 h), then Protein A/G PLUS-Agarose overnight at 4 °C; five PBS washes; western blot with anti-Flag / anti-RFP; IgG control
[2] = target: T1, TRPM3 with a C-terminal RFP tag (TRPM3-RFP) (mouse); assay: as above

| Binder | binding [1] | binding [2] |
| --- | --- | --- |
| TRPM3 with a C-terminal RFP tag (TRPM3-RFP) (protein, UniProt J9SQF3-13 1-1337) MPGPWGTVYFLGTAQICSFLSSRWNLEGVMNQTDASRPLNWTIRKLCHAAFLPSVRLLKAQKSWIERAFYKRECVHIIPSTKDPHRCCCGRLIGQHVGLTPSISVLQNEKNESRLSRNDIQSEKWSISKHTQLSPTDAFGTIEFQGGGHSNKAMYVRVSFDTKPDLLLHLMTKEWQLELPKLLISVHGGLQNFELQPKLKQVFGKGLIKAAMTTGAWIFTGGVNTGVIRHVGDALKDHASKSRGKICTIGIAPWGIVENQEDLIGRDVVRPYQTMSNPMSKLTVLNSMHSHFILADNGTTGKYGAEVKLRRQLEKHISLQKINTRIGQGVPVVALIVEGGPNVISIVLEYLRDTPPVPVVVCDGSGRASDILAFGHKYSEEGGLINESLRDQLLVTIQKTFTYTRTQAQHLFIILMECMKKKELITVFRMGSEGHQDIDLAILTALLKGANASAPDQLSLALAWNRVDIARSQIFIYGQQWPVGSLEQAMLDALVLDRVDFVKLLIENGVSMHRFLTISRLEELYNTRHGPSNTLYHLVRDVKKREYPGFGWIYFKGNLPPDYRISLIDIGLVIEYLMGGAYRCNYTRKRFRTLYHNLFGPKRPKALKLLGMEDDIPLRRGRKTTKKREEEVDIDLDDPEINHFPFPFHELMVWAVLMKRQKMALFFWQHGEEAMAKALVACKLCKAMAHEASENDMVDDISQELNHNSRDFGQLAVELLDQSYKQDEQLAMKLLTYELKNWSNATCLQLAVAAKHRDFIAHTCSQMLLTDMWMGRLRMRKNSGLKVILGILLPPSILSLEFKNKDDMPYMTQAQEIHLQEKEPEEPEKPTKEKDEEDMELTAMLGRSNGESSRKKDEEEVQSRHRLIPVGRKIYEFYNAPIVKFWFYTLAYIGYLMLFNYIVLVKMERWPSTQEWIVISYIFTLGIEKMREILMSEPGKLLQKVKVWLQEYWNVTDLIAILLFSVGMILRLQDQPFRSDGRVIYCVNIIYWYIRLLDIFGVNKYLGPYVMMIGKMMIDMMYFVIIMLVVLMSFGVARQAILFPNEEPSWKLAKNIFYMPYWMIYGEVFADQIDPPCGQNETREDGKTIQLPPCKTGAWIVPAIMACYLLVANILLVNLLIAVFNNTFFEVKSISNQVWKFQRYQLIMTFHERPVLPPPLIIFSHMTMIFQHVCCRWRKHESDQDERDYGLKLFITDDELKKVHDFEEQCIEEYFREKDDRFNSSNDERIRVTSERVENMSMRLEEVNEREHSMKASLQTVDIRLAQLEDLIGRMATALERLTGLERAESNKIRSRTSSDCTDAAYIVRQSSFNSQEGNTFKLQESIDPAEHPFYSV | binds |  |
| Copine-6 C2A domain (Copine-6 1-151), Flag-tagged (domain or fragment, UniProt Q9Z140 1-151) MSDPEMGWVPEPPAMTLGASRVELRVSCHGLLDRDTLTKPHPCVLLKLYSDEQWVEVERTEVLRSCSSPVFSRVLAIEYFFEEKQPLQFHVFDAEDGATSPSSDTFLGSTECTLGQIVSQTKVTKPLLLKNGKTAGKSTITIVAEEVSGTN |  | binds |
| Copine-6 vWA domain (Copine-6 269-557), Flag-tagged (domain or fragment, UniProt Q9Z140 269-557) YRDKKKNYKSSGTVVLAQCTVEKVHTFLDYIMGGCQISFTVAIDFTASNGDPRSSQSLHCLSPRQPNHYLQALRTVGGICQDYDSDKRFPAFGFGARIPPNFEVSHDFAINFDPENPECEEISGVIASYRRCLPQIQLYGPTNVAPIINRVAEPAQREQSTGQATKYSVLLVLTDGVVSDMAETRTAIVRASRLPMSIIIVGVGNADFSDMRLLDGDDGPLRCPKGVPAARDIVQFVPFRDFKDAAPSALAKCVLAEVPRQVVEYYASQGISPGAPRPSTPAMTPSPSP |  | binds |
